According to the supplement of paper PMC10849652:
Some of the results follow.

Sequences of proteins named here, by UniProt entry; tags and fusion partners are left off. A change or cut given only in a name is not applied to a line headed by its entry.
UniProt Q9NQX7: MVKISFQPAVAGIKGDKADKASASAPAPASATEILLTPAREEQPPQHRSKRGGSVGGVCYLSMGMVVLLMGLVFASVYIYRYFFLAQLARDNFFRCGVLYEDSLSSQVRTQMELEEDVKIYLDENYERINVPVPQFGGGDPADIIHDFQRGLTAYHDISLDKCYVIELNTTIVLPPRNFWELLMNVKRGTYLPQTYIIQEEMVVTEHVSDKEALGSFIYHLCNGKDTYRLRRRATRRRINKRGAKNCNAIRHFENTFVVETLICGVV
UniProt Q8NHM5: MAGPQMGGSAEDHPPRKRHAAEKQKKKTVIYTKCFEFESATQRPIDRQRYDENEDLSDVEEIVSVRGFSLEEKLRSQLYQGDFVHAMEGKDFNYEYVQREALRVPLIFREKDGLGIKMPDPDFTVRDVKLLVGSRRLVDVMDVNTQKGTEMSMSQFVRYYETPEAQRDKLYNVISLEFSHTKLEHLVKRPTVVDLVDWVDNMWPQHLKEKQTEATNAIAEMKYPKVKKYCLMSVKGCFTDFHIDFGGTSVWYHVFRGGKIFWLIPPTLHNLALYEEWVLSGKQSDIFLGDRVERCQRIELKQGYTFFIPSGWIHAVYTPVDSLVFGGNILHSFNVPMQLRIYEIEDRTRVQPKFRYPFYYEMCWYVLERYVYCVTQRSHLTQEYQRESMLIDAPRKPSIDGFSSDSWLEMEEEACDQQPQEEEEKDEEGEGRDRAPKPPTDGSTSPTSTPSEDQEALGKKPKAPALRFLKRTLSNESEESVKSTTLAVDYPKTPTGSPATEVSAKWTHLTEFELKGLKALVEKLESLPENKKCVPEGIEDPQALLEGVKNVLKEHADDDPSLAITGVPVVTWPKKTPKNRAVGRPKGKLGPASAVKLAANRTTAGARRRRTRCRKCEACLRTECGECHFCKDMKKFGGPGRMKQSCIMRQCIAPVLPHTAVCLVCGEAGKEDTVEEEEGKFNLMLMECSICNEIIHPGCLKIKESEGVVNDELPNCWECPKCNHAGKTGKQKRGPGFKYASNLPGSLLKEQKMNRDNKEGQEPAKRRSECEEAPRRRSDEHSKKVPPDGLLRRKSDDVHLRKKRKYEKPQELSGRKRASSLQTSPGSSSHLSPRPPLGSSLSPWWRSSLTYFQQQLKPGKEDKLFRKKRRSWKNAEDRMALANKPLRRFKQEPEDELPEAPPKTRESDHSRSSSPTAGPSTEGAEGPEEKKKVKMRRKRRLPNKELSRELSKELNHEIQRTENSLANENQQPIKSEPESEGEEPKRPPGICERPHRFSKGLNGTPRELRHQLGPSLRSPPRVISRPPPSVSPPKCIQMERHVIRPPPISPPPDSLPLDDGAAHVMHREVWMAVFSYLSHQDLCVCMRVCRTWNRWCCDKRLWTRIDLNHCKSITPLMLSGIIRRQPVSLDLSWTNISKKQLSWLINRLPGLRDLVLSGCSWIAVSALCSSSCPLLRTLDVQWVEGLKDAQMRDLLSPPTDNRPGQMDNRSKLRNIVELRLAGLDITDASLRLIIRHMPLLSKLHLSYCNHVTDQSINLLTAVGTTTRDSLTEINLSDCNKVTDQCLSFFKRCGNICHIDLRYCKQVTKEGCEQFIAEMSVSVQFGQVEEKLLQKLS
UniProt P17275: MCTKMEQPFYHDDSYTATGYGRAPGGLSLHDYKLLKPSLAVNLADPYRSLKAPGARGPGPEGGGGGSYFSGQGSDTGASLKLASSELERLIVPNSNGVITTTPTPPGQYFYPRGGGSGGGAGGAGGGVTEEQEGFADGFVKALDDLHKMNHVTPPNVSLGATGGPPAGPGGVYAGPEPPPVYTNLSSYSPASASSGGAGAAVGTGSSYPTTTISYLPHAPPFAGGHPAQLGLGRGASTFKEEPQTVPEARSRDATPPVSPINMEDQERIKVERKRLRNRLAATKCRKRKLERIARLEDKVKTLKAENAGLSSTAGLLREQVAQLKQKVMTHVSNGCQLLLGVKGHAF
UniProt Q12809: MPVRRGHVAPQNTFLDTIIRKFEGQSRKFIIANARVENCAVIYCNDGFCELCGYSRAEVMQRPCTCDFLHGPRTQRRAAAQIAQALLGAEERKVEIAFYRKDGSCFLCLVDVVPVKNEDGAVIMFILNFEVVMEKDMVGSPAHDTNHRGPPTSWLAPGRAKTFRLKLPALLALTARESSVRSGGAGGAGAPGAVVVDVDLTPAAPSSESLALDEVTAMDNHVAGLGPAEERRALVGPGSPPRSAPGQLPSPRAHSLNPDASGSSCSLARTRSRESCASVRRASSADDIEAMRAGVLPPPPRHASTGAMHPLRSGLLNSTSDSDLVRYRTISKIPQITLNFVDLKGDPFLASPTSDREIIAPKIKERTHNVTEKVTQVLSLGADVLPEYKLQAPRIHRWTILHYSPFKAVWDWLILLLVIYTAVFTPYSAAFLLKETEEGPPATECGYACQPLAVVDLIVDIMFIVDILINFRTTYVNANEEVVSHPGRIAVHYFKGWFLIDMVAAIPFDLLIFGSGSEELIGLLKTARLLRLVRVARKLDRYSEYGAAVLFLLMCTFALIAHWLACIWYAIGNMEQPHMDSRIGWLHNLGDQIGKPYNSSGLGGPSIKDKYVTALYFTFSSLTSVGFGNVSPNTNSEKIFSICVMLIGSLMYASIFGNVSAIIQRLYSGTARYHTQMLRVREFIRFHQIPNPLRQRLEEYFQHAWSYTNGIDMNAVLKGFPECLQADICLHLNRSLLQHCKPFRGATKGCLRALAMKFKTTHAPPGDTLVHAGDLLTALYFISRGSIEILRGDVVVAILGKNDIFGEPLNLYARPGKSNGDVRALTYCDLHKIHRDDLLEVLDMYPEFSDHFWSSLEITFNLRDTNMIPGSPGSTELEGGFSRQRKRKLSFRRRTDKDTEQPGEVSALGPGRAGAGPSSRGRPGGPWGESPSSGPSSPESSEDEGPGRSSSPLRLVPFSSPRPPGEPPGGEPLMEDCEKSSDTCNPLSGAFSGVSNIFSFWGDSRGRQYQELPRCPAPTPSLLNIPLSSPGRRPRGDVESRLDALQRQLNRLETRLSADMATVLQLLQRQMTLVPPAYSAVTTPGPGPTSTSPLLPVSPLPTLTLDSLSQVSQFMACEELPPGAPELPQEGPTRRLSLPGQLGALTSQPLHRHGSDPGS
UniProt Q00978: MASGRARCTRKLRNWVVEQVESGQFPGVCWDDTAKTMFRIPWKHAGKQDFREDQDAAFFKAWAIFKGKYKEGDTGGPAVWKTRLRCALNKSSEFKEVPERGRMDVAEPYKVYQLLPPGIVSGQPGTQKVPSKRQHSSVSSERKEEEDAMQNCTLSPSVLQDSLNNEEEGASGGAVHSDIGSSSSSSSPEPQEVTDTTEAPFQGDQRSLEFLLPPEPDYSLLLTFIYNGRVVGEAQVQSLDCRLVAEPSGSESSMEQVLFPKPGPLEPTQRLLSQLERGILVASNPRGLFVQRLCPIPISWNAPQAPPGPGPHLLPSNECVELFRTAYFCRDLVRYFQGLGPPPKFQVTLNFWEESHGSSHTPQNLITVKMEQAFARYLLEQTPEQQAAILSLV
UniProt Q96MP8: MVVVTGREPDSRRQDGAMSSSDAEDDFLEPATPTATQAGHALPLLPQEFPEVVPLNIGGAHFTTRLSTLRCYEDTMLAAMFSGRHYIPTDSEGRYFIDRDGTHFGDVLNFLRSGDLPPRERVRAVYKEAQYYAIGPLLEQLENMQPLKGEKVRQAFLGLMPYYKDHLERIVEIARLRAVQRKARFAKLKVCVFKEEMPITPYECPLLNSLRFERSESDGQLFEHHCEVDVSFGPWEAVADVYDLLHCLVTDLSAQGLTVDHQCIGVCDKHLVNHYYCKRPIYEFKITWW
UniProt Q14571, whole entry, looked up: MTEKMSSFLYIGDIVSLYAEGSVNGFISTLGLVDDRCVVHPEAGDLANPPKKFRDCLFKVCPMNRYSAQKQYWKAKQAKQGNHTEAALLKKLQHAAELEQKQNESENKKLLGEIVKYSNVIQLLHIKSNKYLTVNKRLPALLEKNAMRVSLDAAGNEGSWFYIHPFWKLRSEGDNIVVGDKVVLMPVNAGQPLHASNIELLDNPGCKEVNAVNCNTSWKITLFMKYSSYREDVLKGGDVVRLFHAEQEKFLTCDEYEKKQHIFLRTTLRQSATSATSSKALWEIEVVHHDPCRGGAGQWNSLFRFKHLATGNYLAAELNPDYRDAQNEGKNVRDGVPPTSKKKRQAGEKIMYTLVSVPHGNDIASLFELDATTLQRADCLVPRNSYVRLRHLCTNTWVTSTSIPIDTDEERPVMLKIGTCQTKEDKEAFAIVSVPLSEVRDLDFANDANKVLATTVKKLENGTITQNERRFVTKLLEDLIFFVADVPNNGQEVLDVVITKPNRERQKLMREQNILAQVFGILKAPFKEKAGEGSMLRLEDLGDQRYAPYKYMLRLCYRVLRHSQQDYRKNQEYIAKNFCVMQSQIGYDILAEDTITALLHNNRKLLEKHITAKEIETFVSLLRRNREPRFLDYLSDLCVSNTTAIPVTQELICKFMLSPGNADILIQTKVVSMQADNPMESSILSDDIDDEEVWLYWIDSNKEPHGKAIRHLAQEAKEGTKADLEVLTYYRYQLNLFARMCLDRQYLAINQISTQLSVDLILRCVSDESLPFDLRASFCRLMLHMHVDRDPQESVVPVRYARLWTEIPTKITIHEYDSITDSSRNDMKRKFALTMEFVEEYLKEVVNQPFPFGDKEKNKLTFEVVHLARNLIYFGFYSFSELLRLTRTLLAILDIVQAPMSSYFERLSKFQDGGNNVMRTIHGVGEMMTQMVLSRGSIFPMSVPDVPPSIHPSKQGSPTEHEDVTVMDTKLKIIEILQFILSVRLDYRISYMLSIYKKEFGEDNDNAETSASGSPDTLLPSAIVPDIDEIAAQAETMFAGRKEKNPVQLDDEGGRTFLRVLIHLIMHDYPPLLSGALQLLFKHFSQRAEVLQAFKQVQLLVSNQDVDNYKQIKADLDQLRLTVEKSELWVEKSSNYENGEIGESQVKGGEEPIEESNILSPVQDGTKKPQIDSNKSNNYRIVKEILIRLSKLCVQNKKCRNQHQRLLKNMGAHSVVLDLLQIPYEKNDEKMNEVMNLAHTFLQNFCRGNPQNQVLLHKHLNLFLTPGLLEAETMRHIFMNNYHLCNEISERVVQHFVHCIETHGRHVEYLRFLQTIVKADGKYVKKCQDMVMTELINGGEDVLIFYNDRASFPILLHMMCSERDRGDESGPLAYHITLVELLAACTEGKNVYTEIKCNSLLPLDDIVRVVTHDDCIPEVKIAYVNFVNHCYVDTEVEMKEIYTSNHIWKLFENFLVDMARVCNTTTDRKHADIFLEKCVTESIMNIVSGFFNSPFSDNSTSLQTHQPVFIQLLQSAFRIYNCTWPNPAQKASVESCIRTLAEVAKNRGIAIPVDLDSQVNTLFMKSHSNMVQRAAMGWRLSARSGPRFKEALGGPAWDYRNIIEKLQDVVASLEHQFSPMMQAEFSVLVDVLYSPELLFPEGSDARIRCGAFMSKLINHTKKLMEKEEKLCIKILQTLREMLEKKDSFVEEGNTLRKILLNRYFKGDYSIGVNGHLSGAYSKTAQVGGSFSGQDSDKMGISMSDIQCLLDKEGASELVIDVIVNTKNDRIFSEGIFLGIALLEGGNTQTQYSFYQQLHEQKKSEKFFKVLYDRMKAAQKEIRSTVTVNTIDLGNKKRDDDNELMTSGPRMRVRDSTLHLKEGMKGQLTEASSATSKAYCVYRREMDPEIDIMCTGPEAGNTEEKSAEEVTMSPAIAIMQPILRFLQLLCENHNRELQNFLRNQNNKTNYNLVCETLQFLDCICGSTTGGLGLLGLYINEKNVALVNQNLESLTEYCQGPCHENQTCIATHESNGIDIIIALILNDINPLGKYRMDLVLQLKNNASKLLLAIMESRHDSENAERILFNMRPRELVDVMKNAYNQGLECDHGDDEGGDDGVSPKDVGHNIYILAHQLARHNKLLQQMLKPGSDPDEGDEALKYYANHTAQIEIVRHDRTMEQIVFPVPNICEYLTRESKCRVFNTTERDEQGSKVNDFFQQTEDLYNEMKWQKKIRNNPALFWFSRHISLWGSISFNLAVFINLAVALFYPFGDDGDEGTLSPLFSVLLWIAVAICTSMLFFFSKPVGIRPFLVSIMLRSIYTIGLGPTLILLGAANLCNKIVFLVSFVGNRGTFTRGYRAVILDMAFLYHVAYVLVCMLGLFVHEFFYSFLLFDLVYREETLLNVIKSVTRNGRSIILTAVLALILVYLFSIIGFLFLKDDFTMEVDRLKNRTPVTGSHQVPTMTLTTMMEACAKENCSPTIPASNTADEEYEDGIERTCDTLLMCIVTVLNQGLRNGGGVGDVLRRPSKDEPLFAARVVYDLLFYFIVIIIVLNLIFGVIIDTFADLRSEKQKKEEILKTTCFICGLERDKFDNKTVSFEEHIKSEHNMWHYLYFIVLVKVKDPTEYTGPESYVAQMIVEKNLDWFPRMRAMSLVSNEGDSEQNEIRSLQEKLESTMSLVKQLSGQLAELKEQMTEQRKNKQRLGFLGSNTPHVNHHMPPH

Key:
Test in all cases: log2 fold change, soluble protein after heating vs DMSO (PISA); higher = thermal stabilisation; K562 lysate, 10 uM; active = over 0.2 and 3.5 SD of the protein, either way, in both replicates (recomputed)
[1] = compound: CNC(=O)C1=CC=CC=C1NC2=NC(=NC=C2Cl)NC3=C(C=C(C=C3)N4CCOCC4)OC
In short: (§1)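 Soluble protein was defined as the supernatant remaining after 21,000xg for 90 min, following pooling of heated aliquots and adjustment to 0.5% NP-40 at 4°C. Before that, crude K562 extract at 1 mg/mL protein in PBS pH 7.4 with 1 mM MgCl2 was treated with 10 μM compound for 30 min and heated for 3 min across 48°C-58°C. Quantification used TMTpro 16plex LC-MS/MS with channel sums equalised, and values are log-two fold changes in thermal stability relative to solvent controls from duplicates.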

[2] = compound: CNc1nc(-c2ccc3c(N)n[nH]c3c2)cc(N2C[C@@H](C(=O)NC3CCCCC3)CC[C@H]2C)n1
In short: as §1

Tubastatin A = compound: CN1CCc2c(c3ccccc3n2Cc2ccc(C(=O)NO)cc2)C1 [Tubastatin A]
In short: as §1

encorafenib = compound: COC(=O)N[C@@H](C)CNc1nccc(-c2cn(C(C)C)nc2-c2cc(Cl)cc(NS(C)(=O)=O)c2F)n1 [encorafenib]
In short: as §1

[3] = compound: COC(=O)[C@H](CCSC)NC(=O)C1=C(C=C(C=C1)NC[C@H](CS)N)C2=CC=CC=C2
In short: as §1

[4] = compound: COc1cc2nc(-c3cc(F)ccc3O)nc(N[C@@H]3CNC[C@H]3C(C)(C)O)c2cc1OC
In short: as §1

alisertib = compound: COc1cc(Nc2ncc3c(n2)-c2ccc(Cl)cc2C(c2c(F)cccc2OC)=NC3)ccc1C(=O)O [alisertib]
In short: as §1

gefitinib = compound: COc1cc2ncnc(Nc3ccc(F)c(Cl)c3)c2cc1OCCCN1CCOCC1 [gefitinib]
In short: as §1

alvocidib = compound: CN1CC[C@H](c2c(O)cc(O)c3c(=O)cc(-c4ccccc4Cl)oc23)[C@H](O)C1 [alvocidib]
In short: as §1

defactinib = compound: CNC(=O)c1ccc(Nc2ncc(C(F)(F)F)c(NCc3nccnc3N(C)S(C)(=O)=O)n2)cc1 [defactinib]
In short: as §1

Measured: log2 fold change

ISG20 (UniProt Q96AZ6)
inactive: [1] 0.007 | [2] 0.043

ITM2C (UniProt Q9NQX7)
inactive: Tubastatin A -0.032 | [1] 0.033 | [2] -0.074 | encorafenib 0.02 | [3] 0.046 | [4] 0.136

JARID2 (UniProt Q92833)
inactive: alisertib 0.062 | gefitinib -0.037

KDM2B (UniProt Q8NHM5)
inactive: Tubastatin A 0.076 | [1] 0.141 | encorafenib -0.013 | [3] 0.062

JOSD1 (UniProt Q15040)
inactive: [1] -0.023

JUNB (UniProt P17275)
inactive: alvocidib -0.075 | [2] 0.025

KCNH2 (UniProt Q12809)
inactive: [1] -0.067

ITIH3 (UniProt Q06033)
inactive: Tubastatin A 0.037 | [1] 0.082 | encorafenib -0.036 | [3] 0.043

JUN (UniProt P05412)
inactive: Tubastatin A -0.06 | [1] -0.033 | [2] 0.074 | encorafenib 0.163 | [3] -0.134 | [4] 0.003

KCTD13 (UniProt Q8WZ19)
inactive: Tubastatin A -0.102 | [1] -0.044 | [2] -0.204 | alisertib -0.16 | gefitinib 0.054

KBTBD6 (UniProt Q86V97)
inactive: alvocidib -0.049 | alisertib -0.229 | gefitinib -0.059

IQCB1 (UniProt Q15051)
inactive: alvocidib 0.09 | [1] -0.038 | defactinib 0.084 | [2] -0.001 | encorafenib -0.21 | [3] 0.022 | alisertib 0.089 | gefitinib 0.067

ITGB1BP2 (UniProt Q9UKP3)
inactive: alvocidib -0.116 | defactinib -0.112 | [2] -0.018 | encorafenib -0.137 | [3] 0.044

Looked up one by one from above, three records:
ITGB1BP2 (UniProt Q9UKP3)
inactive: alvocidib -0.116 | defactinib -0.112 | [2] -0.018 | encorafenib -0.137 | [3] 0.044

JUN (UniProt P05412)
inactive: Tubastatin A -0.06 | [1] -0.033 | [2] 0.074 | encorafenib 0.163 | [3] -0.134 | [4] 0.003

KCNH2 (UniProt Q12809)
inactive: [1] -0.067

Remaining list, next part

IQCD (UniProt Q96DY2)
inactive: alisertib 0.066 | [4] 0.034 | gefitinib -0.143

JAK3 (UniProt P52333)
inactive: alvocidib 0.254 | defactinib 0.06 | [4] -0.041

JPT2 isoform 2 (UniProt Q9H910)
inactive: alvocidib 0.046 | [2] 0.189

NA (UniProt J3KR12)
inactive: alvocidib -0.064 | defactinib -0.1 | encorafenib -0.023 | [3] 0.338

ITFG2 (UniProt H0YGR0)
inactive: Tubastatin A 0.154 | defactinib 0.152 | [2] 0.071 | [4] 0.029

JCHAIN (UniProt P01591)
inactive: [1] 0.278

KATNBL1 (UniProt Q9H079)
inactive: alvocidib -0.106 | [1] -0.033 | defactinib -0.014 | [2] 0.037 | encorafenib -0.137 | [3] -0.188 | alisertib -0.161 | [4] 0.025 | gefitinib -0.254

KANSL2 (UniProt Q9H9L4)
inactive: Tubastatin A -0.035 | [1] 0.091

KAT14 (UniProt Q9H8E8)
inactive: [1] 0.01 | defactinib -0.071 | encorafenib 0.074 | [3] -0.046 | [4] -0.086

KBTBD7 (UniProt Q8WVZ9)
inactive: Tubastatin A 0.053 | [1] -0.084 | defactinib 0.162 | [2] -0.098 | encorafenib -0.061 | [3] 0.219 | [4] 0.036

KCTD2 (UniProt Q14681)
inactive: alvocidib 0.08 | defactinib 0.033 | [2] 0.052 | encorafenib 0.333 | [3] -0.007 | alisertib 0.018 | [4] -0.069 | gefitinib 0.062

IRF9 (UniProt Q00978)
inactive: Tubastatin A -0.184 | [1] 0.09 | [2] -0.122

KCTD7 (UniProt Q96MP8)
inactive: Tubastatin A -0.168 | [1] 0.053 | defactinib -0.391 | [2] 0.136 | encorafenib -0.051 | [3] -0.104 | [4] -0.042

ITPR2 (UniProt Q14571)
inactive: Tubastatin A -0.03 | [1] 0.074 | [2] 0.239 | alisertib 0.001 | [4] 0.234 | gefitinib -0.019

INTU (UniProt Q9ULD6)
inactive: Tubastatin A -0.167 | defactinib -0.435

JTB (UniProt O76095)
inactive: Tubastatin A 0.035 | [1] -0.066 | defactinib -0.048 | [2] 0.022 | encorafenib 0.02 | [3] -0.037 | alisertib -0.038 | [4] 0.024 | gefitinib 0.134

ITPR3 (UniProt Q14573)
inactive: [1] 0.043 | [4] 0.1

ITPRIP (UniProt Q8IWB1)
inactive: [2] -0.268
active: [1] 0.994

KCNK5 (UniProt O95279)
inactive: alvocidib 0.171 | [1] -0.074 | defactinib 0.251 | [2] 0.199 | alisertib 0.119 | [4] -0.211 | gefitinib -0.403

KCNK1 (UniProt O00180)
inactive: alvocidib -0.061 | [1] -0.22 | defactinib 0.246 | [2] 0.282 | encorafenib -0.005 | [3] -0.015 | alisertib -0.586 | [4] 0.099 | gefitinib 0.475

IQUB (UniProt Q8NA54)
inactive: alvocidib 0.028 | defactinib 0.073 | [4] -0.06

JADE2 (UniProt Q9NQC1)
inactive: alvocidib 0.274 | [2] -0.059 | encorafenib -0.004 | [3] 0.037

KCTD21 (UniProt Q4G0X4)
inactive: Tubastatin A -0.163 | [1] -0.068 | defactinib 0.046 | encorafenib -0.011 | [3] 0.088 | alisertib -0.157 | gefitinib 0

JRK isoform 2 (UniProt O75564)
inactive: alisertib -0.016 | gefitinib 0.079

IST1 isoform 2 (UniProt P53990)
inactive: Tubastatin A -0.025 | [1] 0.018 | defactinib 0.144 | [2] 0.085 | encorafenib -0.042 | [3] 0.035 | alisertib -0.217 | [4] -0.102 | gefitinib 0.02

KDF1 (UniProt Q8NAX2)
inactive: [1] 0.17 | defactinib 0.111 | alisertib 0.131 | [4] 0.029 | gefitinib -0.099
